Results as given in US20240076370A1 (Memorial Sloan Kettering, published 2024).
Results are given in words; binding and its absence hold for the method and conditions named. Some results given as binding are weak or reduced against the parent protein; the word gives no strength. One block for each binder: values may come before it.

Legend:
[1] = target: T1, GPRC5D peptide stretch 10GDYFLLCD17 (N-term) (human); test: Pepscan peptide array ELISA, high stringency, 1 µg/ml
T1 sequence (peptide): GDYFLLCD

[2] = target: T2, GPRC5D peptide stretch 227…237 (ECL3) (human); test: as above
T2 sequence (peptide): GNPQFQRQPQW

[3] = target: T3, GPRC5D peptide stretch 5…17 (N-term) (human); test: as above
T3 sequence (peptide): CIESTGDYFLLCD

[4] = target: T4, GPRC5D peptide stretch 15…23 (N-term) (human); test: Pepscan peptide array ELISA, high stringency, 3 µg/ml
T4 sequence (peptide): LCDAEGPWG

[5] = target: T5, GPRC5D peptide stretch 16…25 (N-term) (human); test: Pepscan peptide array ELISA, moderate stringency, 1 µg/ml
T5 sequence (peptide): CDAEGPWGII

[6] = target: T6, GPRC5D peptide stretch 229…237 (ECL3) (human); test: as above
T6 sequence (peptide): PQFQRQPQW

B1: ET150-18 mIgG1 (antibody, V domains shown)
VH: EVQLVESGGGLIQPGGSLRLSCAASGFTFSNYAMNWVRQAPGKGLEWVSTINGRGSSTIYADSVKGRFTISRDNSKNTLYLQMNSLRAEDTATYYCARYISRGLGDSWGQGTLVTV
VL: QSVVTQPPSMSAAPGQQVTISCSGGNSNIERNYVSWYLQLPGTAPKLVIFDNDRRPSGIPDRFSGSKSGTSATLGITGLQTGDEADYYCGTWDSSLRGWVFGGGTKLTVLG
notes: also called ET150-168
- binding [1]: binds
- binding [2]: binds

B2: ET150-5 mIgG1 (antibody, V domains shown)
VH: EVQLVESGGGLVKPGGSLRLSCAASGFTFSDYYMSWIRQAPGKGLEWVSYISSSGSTIYYADSVKGRFTISRDNAKNSLYLQMNSLRAEDTAVYYCARGYGKAYDQWGQGTLVTVSS
VL: QSVLTQPPSASGTPGQRVTISCSGSRSNVGGNYVFWYQQVPGATPKLLIYRSNQRPSGVPDRFAGSKSGSSASLAISGLRSEDEADYYCATWDDSLSGFVFGTGTKVTVLG
notes: also called ET150-155
- binding [3]: binds

The remaining lines, values ahead:

- binding [4]: binds
B3: ET150-8 mIgG1 (antibody, V domains shown)
VH: QVQLVESGGGLVHPGGSLRLSCAASGFTFRSHSMNWVRQAPGKGLEWVSSISSDSTYTYYADSVKGRFTISRDNAKNSLYLQMNSLRAEDTAVYYCARSGGQWKYYDYWGQGTLVTVSS
VL: SSELTQDPAVSVALGQTVRITCQGDSLRSYYASWYQQKPGQAPVLVIYGKNNRPSGIPDRFSGSSSGNTASLTITGAQAEDEADYYCNSRDSSGNPPVVFGGGTKLTVLG
notes: also called ET150-158

- binding [5]: binds
- binding [6]: binds
B4: ET150-2 mIgG1 (antibody, V domains shown)
VH: QMQLVQSGAEVKKPGASVKVSCKASGYTFNRYAITWVRQAPGQGLEWMGWISAYNGNSHYAQKLQGRVTMTTDTSTGTAYMELRRLRSDDTAVYYCARMAYDSWGQGTLVTVSS
VL: QSVLTQPASVSGSPGQSLTISCTGTSNDVGAYKYVSWYQQYPGKAPKLILYDVFKRPSGVSNRFSGSKSDNTASLTISGLQAEDEADYYCFSLTSSNTYVFGTGTKVTVLG
notes: also called ET150-152
